Assay [1] addresses T1, FliW-T25 (Clostridioides difficile) (UniProt Q18CX4).
T1 sequence: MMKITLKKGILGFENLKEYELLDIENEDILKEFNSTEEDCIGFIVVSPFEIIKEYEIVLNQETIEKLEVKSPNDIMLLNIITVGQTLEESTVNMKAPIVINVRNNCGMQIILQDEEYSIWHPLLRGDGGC
Put plainly: two-hybrid; bacterial two-hybrid (BACTH) in E. coli BTH101; T25 and T18 fusions co-transformed; cultures dotted on LB-X-Gal-IPTG indicator plates, blue colonies positive, white colonies no interaction.

Assay [2] concerns the target T2, FliW-3×FLAG (Clostridioides difficile) (UniProt Q18CX4).
T2 sequence: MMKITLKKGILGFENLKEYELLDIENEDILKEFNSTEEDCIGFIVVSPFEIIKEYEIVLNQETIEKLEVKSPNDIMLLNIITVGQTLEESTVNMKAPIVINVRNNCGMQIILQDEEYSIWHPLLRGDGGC
Description: co-IP; lysates of C. difficile CD1015ΔfliCΔfliWΔcsrAΔtcdR co-expressing FliW-3×FLAG and TcdR-6×His; anti-[…] magnetic agarose, room temperature 20 min; Western blot with anti-FLAG or anti-His; control strain with FliW lacking the 3×FLAG tag.

The target in assay [3] is T1, FliW-T25 (Clostridioides difficile). Description: two-hybrid.
For assay [4], the target named is FliC-T25 (Clostridioides difficile). Put plainly: two-hybrid; bacterial two-hybrid (BACTH) in E. coli BTH101; T25 and T18 fusions co-transformed; cultures dotted on LB-X-Gal-IPTG indicator plates, blue colonies positive, white colonies no interaction.

Results are given in words; binding and its absence hold for the method and conditions named. For some of these results: Binding can be weak; no strength is given. For some of these results: Binding seen in cells or lysates may run through a third protein. For some of these results: Sequences can lack the tags named with a protein.

Take FliC-T18 (Clostridioides difficile): in assay [1], the binding entry is listed as “binds”.
With TcdR-6×His (Clostridioides difficile), the binding entry in assay [2] is recorded as “binds”.
Take TcdR-T18 (Clostridioides difficile): in assay [3], the binding result is recorded as “binds”.

B1: CsrA-T18 (protein, UniProt Q18CX3 1-70)
chain: MLVISRKKDEAVLIGDNIEVKVVGVDGNNIKLAISAPNNISILRKEIYEKVKNENIKATNKNIKILKSLK
As to B1, in assay [4], the binding entry was “no binding”.

The values are drawn from paper PMC11898703.
